Assay results published in PubChem BioAssay AID493014 (National Center for Advancing Translational Sciences (NCATS), 2011).
The list shows a part of the results. Further columns of the screen follow, without active or inactive calls. Most of these compounds were active or inconclusive in the main read-out, so they are no random draw. Potencies come from curve fits of mixed quality, noted in brackets.

Experiment: qHTS Assay to Find Inhibitors of Chronic Active B-Cell Receptor Signaling
Details: ABC-DLBCL IkBa-CBG/CBR reporter, luminescence ratio (green luciferase fused to IkBa over red control in TMD8 lymphoma cells), 4 h
Method in brief: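 Concentration-response series (up to 46 uM) were applied to TMD8 dual-reporter cells for 4 h at 37C with doxycycline. Green/red ratio, after filter-overlap correction, defined %Activity; red signal alone was normalised to basal cells and zero luminescence.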

[1] = measured here: CBR red luminescence, cell number
[2] = measured here: IkBa-CBG green luminescence

Row | Compound | AC50 [1] | AC50 [2]
1 | O=C(COc1ccc(Cl)cc1Cl)NCCCN1CCOCC1 | 4.47 µM [rising, partial curve, poor fit] | 
2 | C/C(=N/OC(=O)C1CC1)c1cc(-c2ccc(Cl)cc2)no1 | 3.16 µM [rising, full curve] | 
3 | CCN(CC)S(=O)(=O)c1ccc(Cl)c(NC(=S)NC(=O)C2CCCC2)c1 | 29.1 µM [falling, single point] | 
4 | CCCn1c(NC(=O)c2ccccc2)nc2ccccc21 | 0.00461 µM [rising, full curve, poor fit] | 
5 | O=C(Nc1nnc(-c2ccncc2)o1)c1ccccc1 | 0.631 µM [falling, full curve, poor fit] | 
6 | CCOC(=O)C1(CCOC)CCN(Cc2ccc(C(=O)OC)cc2)CC1 | 12.6 µM [falling, partial curve] | 
7 | Cc1nn(-c2ccccc2)nc1CNC(=O)CC(C)(C)C | 0.398 µM [rising, full curve] | 
8 | O=C(c1ccccc1)c1ccc(N2CCCC2)cc1 | 2.82 µM [rising, full curve, poor fit] | 
9 | O=C(COC(=O)/C=C/c1cccc([N+](=O)[O-])c1)NCCCN1CCCC1=O | 0.1 µM [falling, full curve, poor fit] | 25.1 µM [rising, partial curve, poor fit]
10 | C[C@@H]1CC=C[C@H]2[C@H]1C(=O)N(Cc1ccccc1)[C@H]2c1ccc2ccccc2c1Br | 3.55 µM [falling, full curve, poor fit] | 
11 | Nc1nc2c(s1)C(=O)CCC2 | 6.31 µM [rising, single point] | 
12 | O=C(Nc1ccccc1)NC1CC2CCC(C1)N2Cc1nnnn1Cc1ccc2c(c1)OCO2 (stereo not drawn) | 6.51 µM [rising, single point] | 
13 | CSc1ccccc1OCc1cc(C(=O)NC(C)Cc2cccc(C)n2)no1 (stereo not drawn) | 17.8 µM [falling, single point] | 
14 | CCn1ncc([N+](=O)[O-])c1C(=O)Nc1nc2cccc(C)c2s1 | 12.6 µM [falling, single point] | 11.2 µM [rising, partial curve, poor fit]
15 | CC(C)/C=C1\CCc2c([nH]c3ccccc23)C1=O | 35.5 µM [falling, single point] | 
16 | Cc1ccccc1N=C(N)Nc1ccccc1C | 1.3 µM [falling, partial curve, poor fit] | 
17 | CN(CCc1ccccn1)C(=O)c1cc(COc2ccc(F)cc2F)on1 | 3.55 µM [rising, single point] | 
18 | COc1ccc(N(C)C(=O)c2cn(CC(C)C)c(=O)c3cc(OC)c(OC)cc23)cc1 | 2.82 µM [rising, partial curve] | 
19 | Cc1c(OCC(=O)N2C[C@H]3C[C@@H](C2)c2cccc(=O)n2C3)ccc2c3c(c(=O)oc12)CCCC3 | 1.58 µM [rising, partial curve, poor fit] | 
20 | COc1ccc(Nc2nc(C(=O)N3CCc4ccccc4C3)cs2)cc1 | 1.12 µM [falling, full curve, poor fit] | 
21 | CCC(C)Nc1nc(N)c([N+](=O)[O-])c(Nc2cc(OC)ccc2OC)n1 (stereo not drawn) | 6.31 µM [rising, single point] | 
22 | O=C(c1ccc2c(c1)N(Cc1ccccc1)C(=O)c1ccccc1S2)N1CCCC1 | 14.1 µM [falling, single point] | 
23 | CCN(CC)S(=O)(=O)c1ccc(C)c(NC(=S)N2CCN(C/C=C/c3ccccc3)CC2)c1 | 28.2 µM [falling, single point] | 
24 | CCc1ccc(NC(=O)c2noc(C(C)C)c2[N+](=O)[O-])cc1 | 1.41 µM [rising, full curve, poor fit] | 
25 | Cc1cccc2c1c1ccc3c(c1n2C)C(=O)C=CC3=O | 31.6 µM [rising, single point] | 
26 | CN1CCN(c2ccc(CNS(=O)(=O)c3cccc(F)c3)cc2)CC1 | 15.8 µM [rising, single point] | 
27 | O=C(/C=C/c1cccc(OCc2ccccc2)c1)c1cccnc1 | 20.6 µM [falling, single point] | 29.1 µM [rising, single point]
28 | CCN1C(=NCCCOC(C)C)N[C@@H](CCc2ccccc2)[C@H](C(=O)NCCCOC(C)C)[C@H]1C | 35.5 µM [falling, single point] | 
29 | COc1ccc(-n2c(SCC(=O)NNC(=O)c3ccccc3C)nnc2-c2ccncc2)cc1 | 5.62 µM [falling, partial curve, poor fit] | 
30 | c1ccc(Nc2nc(-c3cccnc3)cs2)nc1 | 7.94 µM [falling, partial curve, poor fit] | 

2 entries from above, set out differently:
CCN1C(=NCCCOC(C)C)N[C@@H](CCc2ccccc2)[C@H](C(=O)NCCCOC(C)C)[C@H]1C
  AC50 [1]: 35.5 µM [falling, single point]
COc1ccc(-n2c(SCC(=O)NNC(=O)c3ccccc3C)nnc2-c2ccncc2)cc1
  AC50 [1]: 5.62 µM [falling, partial curve, poor fit]
